Earlier results in patent US6511811B1, “Protein kinase C antagonist related to insulin receptor” (The Regents of the University of California, priority 1995, dated 2003).

System: insulin receptor kinase activity
Details: incubation of cells with the inhibitor; Mosthaf et al.; cited from earlier work

SMILES: CN[C@@H]1C[C@H]2O[C@@](C)([C@@H]1OC)n1c3ccccc3c3c4c(c5c6ccccc6n2c5c31)C(=O)NC4 [staurosporin]
- Effect on hyperglycemia-induced inhibition of insulin receptor kinase activity: is inhibited
